Test results reported in PMC8649873.
These are yes or no findings as the source states them, for the method shown. In cells and extracts the contact can be indirect. Some binding calls cover weakened binding; strength is not graded here. For part of these data: Where a sequence is shown, tags or fusion partners need not be part of it.

The chains behind the UniProt entries cited, without tags or fusion partners.
UniProt O75396: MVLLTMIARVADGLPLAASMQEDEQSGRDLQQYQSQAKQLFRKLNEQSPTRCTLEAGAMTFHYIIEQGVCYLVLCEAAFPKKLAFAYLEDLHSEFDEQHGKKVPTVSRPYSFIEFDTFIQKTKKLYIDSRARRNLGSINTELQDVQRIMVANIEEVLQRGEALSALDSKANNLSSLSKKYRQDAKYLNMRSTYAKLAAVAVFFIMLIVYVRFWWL

Assays:
[1] = biological target: T1, HA-tagged BET1 Asp68His (human) (UniProt O15155); test: co-IP; HA-tagged BET1 constructs (GFP as control) expressed in HEK293 cells; lysis in EBC buffer (50 mM Tris-HCl, 120 mM NaCl, 0.5% NP-40, 5 mM EDTA); anti-HA sepharose beads 2 h at 4°C; immunoblot of endogenous partners
T1 sequence: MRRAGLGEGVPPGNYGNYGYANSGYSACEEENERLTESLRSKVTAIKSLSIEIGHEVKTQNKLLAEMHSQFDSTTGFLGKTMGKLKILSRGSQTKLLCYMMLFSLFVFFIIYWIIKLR

[2] = biological target: T2, HA-tagged BET1 Ile51Ser (human) (UniProt O15155); test: as above
T2 sequence: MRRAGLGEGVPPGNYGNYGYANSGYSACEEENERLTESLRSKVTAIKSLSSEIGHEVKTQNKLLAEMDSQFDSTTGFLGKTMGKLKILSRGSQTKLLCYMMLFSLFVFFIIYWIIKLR

[3] = biological target: T3, HA-tagged wild-type BET1 (human) (UniProt O15155); test: as above
T3 sequence: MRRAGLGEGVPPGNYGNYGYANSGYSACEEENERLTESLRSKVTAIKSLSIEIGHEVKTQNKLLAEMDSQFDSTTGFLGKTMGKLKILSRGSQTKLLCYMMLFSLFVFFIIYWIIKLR

[4] = biological target: T4, BET1 (endogenous) (human (endogenous in HEK293T)) (UniProt O15155); test: co-IP; endogenous: HEK293T (legend; HEK293 in the methods) lysate in EBC buffer with anti-BET1 antibody overnight at 4°C, magnetic protein A/G beads; controls lysis buffer without cells and lysate without antibody; immunoblot
T4 sequence: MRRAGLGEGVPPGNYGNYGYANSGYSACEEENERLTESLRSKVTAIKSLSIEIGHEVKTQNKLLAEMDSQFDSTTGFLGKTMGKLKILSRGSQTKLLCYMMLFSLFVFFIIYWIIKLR

Measured: binding

SEC22b (from UniProt O75396 1-215)
binds: [1] | [2] | [3]

B1: ERGIC-53 (protein, UniProt P49257 31-510)
chain: DGVGGDPAVALPHRRFEYKYSFKGPHLVQSDGTVPFWAHAGNAIPSSDQIRVAPSLKSQRGSVWTKTKAAFENWEVEVTFRVTGRGRIGADGLAIWYAENQGLEGPVFGSADLWNGVGIFFDSFDNDGKKNNPAIVIIGNNGQIHYDHQNDGASQALASCQRDFRNKPYPVRAKITYYQNTLTVMINNGFTPDKNDYEFCAKVENMIIPAQGHFGISAATGGLADDHDVLSFLTFQLTEPGKEPPTPDKEISEKEKEKYQEEFEHFQQELDKKKEEFQKGHPDLQGQPAEEIFESVGDRELRQVFEGQNRIHLEIKQLNRQLDMILDEQRRYVSSLTEEISKRGAGMPGQHGQITQQELDTVVKTQHEILRQVNEMKNSMSETVRLVSGMQHPGSAGGVYETTQHFIDIKEHLHIVKRDIDNLVQRNMPSNEKPKCPELPPFPSCLSTVHFIIFVVVQTVLFIGYIMYRSQQEAAAKKFF
binds: [1] | [3] | [4]

B2: GOSR2 (protein, UniProt O14653 1-212)
chain: MDPLFQQTHKQVHEIQSCMGRLETADKQSVHIVENEIQASIDQIFSRLERLEILSSKEPPNKRQNARLRVDQLKYDVQHLQTALRNFQHRRHAREQQERQREELLSRTFTTNDSDTTIPMDESLQFNSSLQKVHNGMDDLILDGHNILDGLRTQRLTLKGTQKKILDIANMLGLSNTVMRLIEKRAFQDKYFMIGGMLLTCVVMFLVVQYLT
binds: [1] | [2] | [3]

B3: Syntaxin-5 (protein, UniProt Q13190 1-355)
chain: MIPRKRYGSKNTDQGVYLGLSKTQVLSPATAGSSSSDIAPLPPPVTLVPPPPDTMSCRDRTQEFLSACKSLQTRQNGIQTNKPALRAVRQRSEFTLMAKRIGKDLSNTFAKLEKLTILAKRKSLFDDKAVEIEELTYIIKQDINSLNKQIAQLQDFVRAKGSQSGRHLQTHSNTIVVSLQSKLASMSNDFKSVLEVRTENLKQQRSRREQFSRAPVSALPLAPNHLGGGAVVLGAESHASKDVAIDMMDSRTSQQLQLIDEQDSYIQSRADTMQNIESTIVELGSIFQQLAHMVKEQEETIQRIDENVLGAQLDVEAAHSEILKYFQSVTSNRWLMVKIFLILIVFFIIFVVFLA
binds: [1] | [2] | [3]
